Source: paper PMC5602300
No constants are given. Whether binding was seen depends on the method and setting. In cells and extracts the contact can be indirect. A yes stands for co-enrichment or nearness to the bait. Other partners may have been found. Tags and fused reporters may be left off the sequences shown.

The chains behind the UniProt entries cited, without tags or fusion partners. Where a name states a change or a piece, a line headed by the entry shows the natural chain unless it says otherwise.
UniProt Q96R06: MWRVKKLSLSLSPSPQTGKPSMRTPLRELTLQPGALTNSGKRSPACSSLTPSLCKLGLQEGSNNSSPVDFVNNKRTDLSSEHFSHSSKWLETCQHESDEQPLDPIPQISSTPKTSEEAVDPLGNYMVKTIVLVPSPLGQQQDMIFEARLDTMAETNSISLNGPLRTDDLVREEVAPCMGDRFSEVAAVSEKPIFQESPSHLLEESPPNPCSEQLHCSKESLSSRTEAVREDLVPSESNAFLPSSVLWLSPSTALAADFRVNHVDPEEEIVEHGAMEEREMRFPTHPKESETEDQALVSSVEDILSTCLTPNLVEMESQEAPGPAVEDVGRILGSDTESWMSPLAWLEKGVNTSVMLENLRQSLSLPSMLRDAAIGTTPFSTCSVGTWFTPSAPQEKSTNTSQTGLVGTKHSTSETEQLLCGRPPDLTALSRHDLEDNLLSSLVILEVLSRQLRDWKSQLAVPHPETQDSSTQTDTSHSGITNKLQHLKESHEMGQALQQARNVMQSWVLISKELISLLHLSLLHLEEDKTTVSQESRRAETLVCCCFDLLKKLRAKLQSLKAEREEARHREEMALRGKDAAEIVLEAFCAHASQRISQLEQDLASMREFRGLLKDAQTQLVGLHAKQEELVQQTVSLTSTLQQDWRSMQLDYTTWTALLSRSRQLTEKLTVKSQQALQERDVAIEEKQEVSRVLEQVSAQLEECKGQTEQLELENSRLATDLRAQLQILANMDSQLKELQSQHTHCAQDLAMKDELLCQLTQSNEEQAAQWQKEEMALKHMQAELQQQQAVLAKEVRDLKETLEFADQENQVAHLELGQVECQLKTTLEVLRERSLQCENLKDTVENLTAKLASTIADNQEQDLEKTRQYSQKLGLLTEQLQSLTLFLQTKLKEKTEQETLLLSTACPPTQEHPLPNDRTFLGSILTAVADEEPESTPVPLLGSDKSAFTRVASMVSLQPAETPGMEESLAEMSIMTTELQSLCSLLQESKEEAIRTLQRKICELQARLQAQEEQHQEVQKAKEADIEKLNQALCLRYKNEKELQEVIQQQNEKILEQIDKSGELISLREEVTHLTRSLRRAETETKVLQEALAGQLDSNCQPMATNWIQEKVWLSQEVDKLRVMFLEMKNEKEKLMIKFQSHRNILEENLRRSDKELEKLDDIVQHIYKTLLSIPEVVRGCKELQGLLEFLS
UniProt Q9Y6D6: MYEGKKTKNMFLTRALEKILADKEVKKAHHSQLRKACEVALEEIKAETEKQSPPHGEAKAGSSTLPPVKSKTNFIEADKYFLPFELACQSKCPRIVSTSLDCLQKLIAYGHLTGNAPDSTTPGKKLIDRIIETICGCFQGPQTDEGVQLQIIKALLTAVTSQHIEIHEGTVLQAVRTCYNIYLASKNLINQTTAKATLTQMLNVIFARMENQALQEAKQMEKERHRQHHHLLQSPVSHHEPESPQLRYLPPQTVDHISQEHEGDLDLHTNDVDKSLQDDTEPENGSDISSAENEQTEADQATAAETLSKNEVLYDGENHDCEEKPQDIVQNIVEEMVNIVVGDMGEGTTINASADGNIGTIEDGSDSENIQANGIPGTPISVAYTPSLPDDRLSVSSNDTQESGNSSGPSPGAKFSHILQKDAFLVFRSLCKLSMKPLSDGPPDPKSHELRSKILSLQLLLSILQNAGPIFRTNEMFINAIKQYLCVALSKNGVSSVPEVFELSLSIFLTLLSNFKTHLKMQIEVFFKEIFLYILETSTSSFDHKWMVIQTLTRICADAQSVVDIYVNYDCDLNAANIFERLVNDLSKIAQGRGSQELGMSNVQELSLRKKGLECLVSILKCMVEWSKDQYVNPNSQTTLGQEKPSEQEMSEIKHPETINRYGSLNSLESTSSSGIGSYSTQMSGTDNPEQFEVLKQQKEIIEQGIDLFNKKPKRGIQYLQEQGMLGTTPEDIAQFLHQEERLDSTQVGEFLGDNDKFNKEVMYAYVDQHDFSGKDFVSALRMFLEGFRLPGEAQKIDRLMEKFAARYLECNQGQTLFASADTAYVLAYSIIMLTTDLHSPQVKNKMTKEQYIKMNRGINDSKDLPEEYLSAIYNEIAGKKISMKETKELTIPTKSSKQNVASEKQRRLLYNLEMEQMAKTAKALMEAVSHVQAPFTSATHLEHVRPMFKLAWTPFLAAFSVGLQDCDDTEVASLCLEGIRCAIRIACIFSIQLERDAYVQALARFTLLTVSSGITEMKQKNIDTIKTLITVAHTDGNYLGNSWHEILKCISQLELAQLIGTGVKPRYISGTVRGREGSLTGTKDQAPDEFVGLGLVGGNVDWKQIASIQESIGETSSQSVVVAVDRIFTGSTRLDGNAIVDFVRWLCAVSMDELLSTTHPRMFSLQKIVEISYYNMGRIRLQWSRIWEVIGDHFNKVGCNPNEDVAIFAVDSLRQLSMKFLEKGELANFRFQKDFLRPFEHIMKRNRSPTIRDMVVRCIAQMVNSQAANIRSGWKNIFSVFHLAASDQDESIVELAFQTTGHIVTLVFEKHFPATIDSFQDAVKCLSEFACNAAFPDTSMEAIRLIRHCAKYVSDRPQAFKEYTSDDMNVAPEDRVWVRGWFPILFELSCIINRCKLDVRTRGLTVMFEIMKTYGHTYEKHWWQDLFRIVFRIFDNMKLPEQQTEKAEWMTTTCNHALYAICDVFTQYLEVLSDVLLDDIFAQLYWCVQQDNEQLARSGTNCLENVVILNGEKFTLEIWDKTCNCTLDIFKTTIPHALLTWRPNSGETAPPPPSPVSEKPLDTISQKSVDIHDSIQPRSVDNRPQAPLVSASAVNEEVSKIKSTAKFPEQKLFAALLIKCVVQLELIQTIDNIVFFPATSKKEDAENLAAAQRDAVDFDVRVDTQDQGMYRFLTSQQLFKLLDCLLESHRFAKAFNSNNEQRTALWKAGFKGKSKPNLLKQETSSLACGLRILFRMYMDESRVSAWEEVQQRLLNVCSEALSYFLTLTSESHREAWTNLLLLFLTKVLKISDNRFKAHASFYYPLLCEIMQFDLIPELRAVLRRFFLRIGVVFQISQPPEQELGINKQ
UniProt Q9Y448: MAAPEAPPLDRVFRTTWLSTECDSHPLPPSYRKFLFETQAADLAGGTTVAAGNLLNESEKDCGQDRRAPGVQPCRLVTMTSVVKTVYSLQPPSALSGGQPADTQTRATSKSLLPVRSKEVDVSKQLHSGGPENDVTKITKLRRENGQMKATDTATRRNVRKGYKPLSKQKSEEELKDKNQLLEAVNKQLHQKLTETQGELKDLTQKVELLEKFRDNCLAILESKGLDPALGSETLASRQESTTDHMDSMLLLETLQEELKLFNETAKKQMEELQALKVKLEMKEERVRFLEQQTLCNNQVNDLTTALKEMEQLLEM

Molecular target: T1, MYCBP-LAP (human) (UniProt Q99417)
T1 sequence: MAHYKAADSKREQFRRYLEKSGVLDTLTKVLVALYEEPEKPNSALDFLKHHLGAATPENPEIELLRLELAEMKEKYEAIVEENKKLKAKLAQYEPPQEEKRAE
Assay: affinity purification with mass spectrometry; MYCBP IP (this study) from human tissue culture cells, standard immunoprecipitation mass spectrometry

| binding | Substance |
| --- | --- |
| binds | Astrin (endogenous, HeLa cells) (from UniProt Q96R06 1-1193) |
| binds | ARFGEF1 (from UniProt Q9Y6D6 1-1849) |
| binds | SKAP (endogenous, HeLa cells) (from UniProt Q9Y448) |
